From patent US20140017669 come the findings set out here.

For some of these results: Negatives hold for the conditions tested. For some of these results: Protein sequences can lack the tags named with them. For some of these results: The exact form of at least one protein or probe is not confirmed. For some of these results: Weaker means in comparison with the reference protein, sequence or condition of that experiment.

Holding throughout (test): enzyme reaction in vitro
For one data set, the system named is MnlI. The settings on record: purified recombinant protein, protein details: New England Biolabs.
The next data set deals with StyD4I. Conditions: NEBuffer 2, 30 C, purified recombinant protein, protein details: New England Biolabs, label: internal fluorescein, IAbFQ.
For a further data set, the system named is BssKI. Conditions: NEBuffer 3, 37 C, purified recombinant protein, protein details: New England Biolabs, label: internal fluorescein, IAbFQ.
Another data set has as its system AlwI. The settings on record: NEBuffer 4 plus 15 mM MgCl2, 37 C, purified recombinant protein, protein details: New England Biolabs, label: 6-FAM, IAbFQ.
In another data set the target is T1, MspI (UniProt P11405).
T1 sequence (looked up, limits assumed): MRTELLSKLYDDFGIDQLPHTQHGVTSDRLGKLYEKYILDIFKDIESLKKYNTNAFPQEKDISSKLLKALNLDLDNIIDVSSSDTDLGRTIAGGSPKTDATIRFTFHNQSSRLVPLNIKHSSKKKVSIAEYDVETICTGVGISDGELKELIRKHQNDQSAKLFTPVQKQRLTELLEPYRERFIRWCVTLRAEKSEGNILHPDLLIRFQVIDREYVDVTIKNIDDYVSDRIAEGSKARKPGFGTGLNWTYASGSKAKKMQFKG
The settings on record: NEBuffer 4, 37 C, purified recombinant protein, protein details: New England Biolabs, label: IAbFQ, 6-FAM.

The next data set relates to EarI. Conditions: NEBuffer 4, 35 C; purified recombinant protein; protein details: New England Biolabs; label: JOE, BHQ.
For the next data set, the system named is RsaI. Conditions: NEBuffer 4, 30 C, purified recombinant protein, protein details: New England Biolabs, label: IAbFQ, 6-FAM.
A further data set relates to Hpy8I. The settings on record: FD buffer, 30 C, purified recombinant protein, protein details: Fermentas, label: IAbFQ, 6-FAM.
A further data set relates to PmeI. The settings on record: NEBuffer 4, 30 C, purified recombinant protein, protein details: New England Biolabs, label: IAbFQ, 6-FAM.
Where [1] appears, read: NEBuffer 4, 10 mM extra MgCl2, 35 C.
[2] abbreviates: single-stranded DNA, variant of BssKI/StyD4I CESA.
The mark [3] stands for this setting: single-stranded DNA, variant of Hpy8I/RsaI CESA.
Setting [4] is: NEBuffer 4, 30 C, label: IAbFQ, 6-FAM.

For the sequence “CATCTCTTCCTCAGAGCCTGACTT / AAGTCAGGTGCTG / AGGAAGAGATG [Ex5 Rn5 CESA]”, the “activity on this sequence” value in the data set on MnlI (setting [1]) is listed as “active”. The same measure, in the same setting: the entry for “CATCTCTTCCTCAGAGCCTGACTT / AAGTCAGGTGCTGAG / GAAGAGATG [Ex5 Rn2 CESA]” is “active”. Take “CATCTCTTCCTCAGAGCCTGACTT / AAGTCAGGTGCTGAGG / AAGAGATG [Ex5 Rn1 CESA]”: the “activity on this sequence” value with MnlI (NEBuffer 4, 15 mM extra MgCl2, 35 C) is “active”. As to “CATCTCTTCCTCAGAGCCTGACTT / AAGTCAGGTGCTGAGG [Ex5 Rn1 PESA]”, the “activity on this sequence” value with MnlI (NEBuffer 4, 15 mM extra MgCl2, 35 C, variant of Ex5 Rn1 CESA) is “less active”. “CTCTCCAGGCAAGAGGT / ACCTACTTGCCT / GGAAGAGAT [BssKI/StyD4I CESA]”: the “activity on this sequence” value with StyD4I is recorded as “not active”; with BssKI, “active”. Turning to “CTCTCCAGGCAAGAGGT / ACCTACTTGCCT [BssKI/StyD4I PESA]”, the “activity on this sequence” value with StyD4I (variant of BssKI/StyD4I CESA) is recorded as “not active”; with BssKI (variant of BssKI/StyD4I CESA), “active”. For the sequence “CTCTCCAGGCAAGAGGT / ACCTACTTGCCTGGAAGAGAT [BssKI/StyD4I full duplex]”, the “activity on this sequence” value in the data set on StyD4I and with BssKI was “active” in each case. CTCTCCAGGCAAGAGGT [RE4F1-FIB]: the “activity on this sequence” value with StyD4I (setting [2]) is given as “not active”; in the data set with BssKI (setting [2]), “active”. With “CTCTTCCACTTGATCCCGTAT / ATACGGGATCAAGT / GGAAGAGAT [AlwI CESA]”, the “activity on this sequence” value in the data set with AlwI is “active”. For “CTCTTCCACTTGATCCCGTAT / ATACGGGATCAAGT [AlwI PESA]”, in the data set with AlwI (variant of AlwI CESA), the “activity on this sequence” value is “active”. In the case of “CTCTTCCACTTGATCCCGTAT / ATACGGGATCAAGTGGAAGAGAT [AlwI full duplex]”, the “activity on this sequence” value with AlwI is given as “active”.

CTCTTCCACTTGATCCCGTAT [EAS7-1(21)-FB]: the “activity on this sequence” value in the data set on AlwI (single-stranded DNA, variant of AlwI CESA) is recorded as “not active”. With “CTCTTCCGGAGTTGCT / AGCAACTCC / GGAAGAGAT [MspI CESA]”, in the data set with MspI, the “activity on this sequence” value is “active”. Turning to “CTCTTCCGGAGTTGCT / AGCAACTCC [MspI PESA]”, the “activity on this sequence” value with MspI (variant of MspI CESA) is “not active”. For “CTCTTCCGGAGTTGCT / AGCAACTCCGGAAGAGAT [MspI full duplex]”, the “activity on this sequence” value in the data set with MspI is “active”. With CTCTTCCGGAGTTGCT [EAS1-4(16)-BF], the “activity on this sequence” value with MspI (single-stranded DNA, variant of MspI CESA) was “not active”. Consider “CTCTTCCTCAGCACCTGATT / AATCAGGTGCTGA / GGAAGAGAT [Ex5 Rn3 CESA (EAS1_10/EAS2_11/DF1)]”, for which the “activity on this sequence” value in the data set on MnlI (setting [1]) is “active”. “CTCTTCCTCAGCACCTGATT / AATCAGGTGCTGA [Ex7 PESA A]”: in the data set with MnlI (no DF control, label: IAbFQ, JOE, variant of Ex7 CESA A), the “activity on this sequence” value is given as “not active”. As to “CTCTTCCTCAGCAGTTCATC / GATGAACTGCTGA / GGAAGAGAT [EarI CESA (RE1F1(20)-JB/RE1S1(13)-5/D1F-3Sub1)]”, the “activity on this sequence” value in the data set on EarI is “active”. For “CTCTTCCTCAGCAGTTCATC / GATGAACTGCTGA / GGAAGAGAT [Ex2 CESA (EAS1-1(20)-JB/EAS2-1(13)/DF1)]”, the “activity on this sequence” value in the data set with MnlI (DF generated by MNAzyme, label: JOE, BHQ1) is reported as “active”.

Turning to “CTCTTCCTCAGCAGTTCATC / GATGAACTGCTGA [EarI PESA]”, the “activity on this sequence” value in the data set on EarI is “not active”. As to “CTCTTCCTCAGCAGTTCATT / AATGAACTGCTGA / GGAAGAGAT [Ex4 CESA (EAS1-1(20)-BJa/EAS2-1(13)-Ba/DF1)]”, in the data set on MnlI (DF generated by MNAzyme, label: IAbFQ, JOE), the “activity on this sequence” value was “active”.

For “CTCTTCCTCTCTTCCCGGATGTCGGCCTCCTAGTACAGCG / TAGGATGTGAAGACGAGGAAGAGAT [Ex10 partially complementary duplex (EAS1_1/ASC-RE5F2-FB)]”, in the data set on MnlI (NEBuffer 4, 35 C, label: IAbFQ, 6-FAM, BHQ1), the “activity on this sequence” value is listed as “active”. Turning to “TAGGATGTGAAGACGAGGAAGAGAT [ASC-RE5F2(25)-FB]”, the “activity on this sequence” value with MnlI (NEBuffer 4, 35 C, label: 6-FAM, BHQ1, single-stranded DNA) is given as “not active”. On to “TCAGCAGTACACAGAACC (double strand) [Hpy8I/RsaI full duplex]”, for which the “activity on this sequence” value in the data set with RsaI and in the data set on Hpy8I was “active” each time. For the sequence “TCAGCAGTACACAGAACC / GGTTCTGTGT / AATGAACTGCTGA [Hpy8I/RsaI EIC]”, the “activity on this sequence” value with RsaI (variant of Hpy8I/RsaI CESA) and in the data set on Hpy8I (variant of Hpy8I/RsaI CESA) was “not active” each time.

As for “TCAGCAGTACACAGAACC / GGTTCTGTGT / ACTGCTGAG [Hpy8I/RsaI CESA]”, the “activity on this sequence” value with RsaI and in the data set with Hpy8I was “active” in each case.

As to “TCAGCAGTACACAGAACC / GGTTCTGTGT [Hpy8I/RsaI PESA]”, the “activity on this sequence” value in the data set on RsaI (variant of Hpy8I/RsaI CESA) and in the data set with Hpy8I (variant of Hpy8I/RsaI CESA) was “not active” in each case. Turning to TCAGCAGTACACAGAACC [EAS3-1(18)-BF], the “activity on this sequence” value in the data set on RsaI (setting [3]) and in the data set with Hpy8I (setting [3]) was “not active” in each case.

On to “TCAGCAGTTTAAACAACC (double strand) [PmeI full duplex]”, for which the “activity on this sequence” value with PmeI was “active”. As to “TCAGCAGTTTAAACAACC / GGTTGTTTAA / AATGAACTGCTGA [PmeI EIC]”, the “activity on this sequence” value with PmeI (variant of PmeI CESA) is recorded as “not active”.

“TCAGCAGTTTAAACAACC / GGTTGTTTAA / ACTGCTGAG [PmeI CESA]”: in the data set on PmeI, the “activity on this sequence” value is listed as “active”. For “TCAGCAGTTTAAACAACC / GGTTGTTTAA [PmeI PESA]”, in the data set on PmeI (variant of PmeI CESA), the “activity on this sequence” value was “not active”. In the case of TCAGCAGTTTAAACAACC [EAS5-1(18)-BF], the “activity on this sequence” value in the data set on PmeI (single-stranded DNA, variant of PmeI CESA) is “not active”. As for “TCAGTCCCACGTGTGA / TCAGCACCTCACACGTGGGAAGAG [Ex7 PESA B]”, the “activity on this sequence” value in the data set with MnlI (no DF control, label: 6-FAM, IAbFQ, variant of Ex7 CESA B) was “not active”. With “TCCGCAGCCTCCCTTCTCTAC / GAGGCTGCGGA / GTAGAGAAGG [Ex5 Rn6 candidate CESA]”, the “activity on this sequence” value in the data set with MnlI (setting [4]) is listed as “not active”. “TCCGCAGCCTCCCTTCTCTAC / GAGGCTGCGGA [Ex5 Rn6 PESA]”: the “activity on this sequence” value with MnlI (NEBuffer 4, 30 C, label: IAbFQ, 6-FAM, variant of Ex5 Rn6 candidate CESA) was “not active”.

As for “TCCGCAGCCTCCCTTCTCTAC / GGGAGGCTGCGGA / GTAGAGAA [Ex5 Rn7 CESA]”, the “activity on this sequence” value in the data set on MnlI (setting [4]) is “active”.

For the sequence “TCCGCAGCCTCCCTTCTCTAC / GGGAGGCTGCGGA [Ex5 Rn7 PESA]”, in the data set with MnlI (NEBuffer 4, 30 C, label: IAbFQ, 6-FAM, variant of Ex5 Rn7 CESA), the “activity on this sequence” value is recorded as “not active”. In the case of “TGGTTGAGCAGAGAGGGATCATC / TCTCTGCTCAACCA / GATGATCCC [Ex5 Rn8 CESA]”, the “activity on this sequence” value in the data set on MnlI (NEBuffer 4, 35 C, label: IAbFQ, 6-FAM) is given as “active”.
